According to publication PMC8316464:
Results are given in words; binding and its absence hold for the method and conditions named. Tags and fused reporters may be left off the sequences shown.

Protein sequences, listed by entry. Tags and fused reporters are not part of them. Lines headed by an entry give the natural chain unless they say otherwise; changes in a name come on top.
UniProt Q07820: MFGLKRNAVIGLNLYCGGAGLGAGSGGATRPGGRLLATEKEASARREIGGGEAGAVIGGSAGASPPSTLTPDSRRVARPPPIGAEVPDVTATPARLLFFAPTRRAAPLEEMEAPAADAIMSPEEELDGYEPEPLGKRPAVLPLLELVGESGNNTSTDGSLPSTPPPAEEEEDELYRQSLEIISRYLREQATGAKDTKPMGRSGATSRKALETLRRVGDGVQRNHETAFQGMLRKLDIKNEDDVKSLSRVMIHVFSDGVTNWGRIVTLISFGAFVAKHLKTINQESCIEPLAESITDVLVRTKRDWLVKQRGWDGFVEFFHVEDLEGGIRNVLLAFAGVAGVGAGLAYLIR
UniProt Q07817: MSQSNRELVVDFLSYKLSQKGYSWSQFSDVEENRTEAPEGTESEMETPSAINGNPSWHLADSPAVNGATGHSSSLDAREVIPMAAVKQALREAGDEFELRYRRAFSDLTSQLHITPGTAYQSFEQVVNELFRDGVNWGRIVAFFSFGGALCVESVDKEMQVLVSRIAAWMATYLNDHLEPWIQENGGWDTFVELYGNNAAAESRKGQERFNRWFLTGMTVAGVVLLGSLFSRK

B1: flag-tagged ApoL1-NTD (D61–T172) (domain or fragment, UniProt O14791 61-172)
chain: DPESSIFIEDAIKYFKEKVSTQNLLLLLTDNEAWNGFVAAAELPRNEADELRKALDNLARQMIMKDKNWHDKGQQYRNWFLKEFPRLKSELEDNIRRLRALADGVQKVHKGT
B2: full-length ApoL1 with N-terminal flag-tag (protein, UniProt O14791-1 28-398)
chain: EEAGARVQQNVPSGTDTGDPQSKPLGDWAAGTMDPESSIFIEDAIKYFKEKVSTQNLLLLLTDNEAWNGFVAAAELPRNEADELRKALDNLARQMIMKDKNWHDKGQQYRNWFLKEFPRLKSELEDNIRRLRALADGVQKVHKGTTIANVVSGSLSISSGILTLVGMGLAPFTEGGSLVLLEPGMELGITAALTGITSSTMDYGKKWWTQAQAHDLVIKSLDKLKEVREFLGENISNFLSLAGNTYQLTRGIGKDIRALRRARANLQSVPHASASRPRVTEPISAESGEQVERVNEPSILEMSRGVKLTDVAPVSFFLVLDVVYLVYESKHLHEGAKSETAEELKKVAQELEEKLNILNNNYKILQADQEL
B3: flag-tagged ApoL2-NTD (N2-T113) (domain or fragment, UniProt Q9BQE5 2-113)
chain: NPESSIFIEDYLKYFQDQVSRENLLQLLTDDEAWNGFVAAAELPRDEADELRKALNKLASHMVMKDKNRHDKDQQHRQWFLKEFPRLKRELEDHIRKLRALAEEVEQVHRGT

Target: His-tagged human Mcl-1 (human) (UniProt Q07820)
Test: SPR; Biacore S200; Bcl-2 family proteins immobilised on CM5 (amine coupling or His-Capture Kit); peptides and flag-tagged proteins as analytes, single-cycle kinetics, HBS-EP, 25 °C; 1:1 Langmuir model; absence of binding probed at 100 nM and 3 µM; both purified

binding, no binding (tested: up to 3 µM):
B1
B2
RLKRELEDHIRKLRALAEEVEQVHR [ApoL2-BH3 peptide (25-mer, residues 87-111)]
B3
RLKSELEDNIRRLRALADGVQKVHK [ApoL1-BH3 peptide (25-mer, residues 146-170)]
RLKSELEDNARRLRALADGVQKVHK [ApoL1-BH3 (I155A) peptide]

Target: Bcl-xL (human) (UniProt Q07817)
Test: as above

binding, no binding (tested: up to 3 µM):
B1
B2
RLKRELEDHIRKLRALAEEVEQVHR [ApoL2-BH3 peptide (25-mer, residues 87-111)]
B3
RLKSELEDNIRRLRALADGVQKVHK [ApoL1-BH3 peptide (25-mer, residues 146-170)]
RLKSELEDNARRLRALADGVQKVHK [ApoL1-BH3 (I155A) peptide]
